In PubChem BioAssay AID1347076 (National Center for Advancing Translational Sciences (NCATS), 2019):
The whole screen tested about 400,000 compounds, of which about 13,000 (3.2%) were called active. The shares of active, inactive and inconclusive entries below differ from those in the screen. The call rests on the fitted dose curve; in most records, active means well fitted cell-killing curve with a large enough effect; inconclusive means small, poorly fitted or top-dose-only effect, or effect the other way; inactive means flat fitted curve, though single readings scatter. Where the call is inconclusive, the potency comes from a doubtful curve fit.

assay: qHTS assay for MDR1-selective chemotherapeutics: Primary screen using the drug-selected MDR subline cells KB-V1; details: KB-V1 MDR cells viability, CellTiter-Glo, 72 h; activity change, negative = cytotoxicity: at 46.1 µM (top of the series); further: nearly all actives have a fitted effect of over 60% in size
Summary of the method: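 Drug-selected KB-V1 cells, grown in DMEM lacking phenol red with 10% FBS, receive compound titrations; after three days at 37 degrees C, surviving cell ATP is quantified by CellTiter-Glo luminescence and responses normalized and curve-fitted.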
On the % scale 0 is the no-effect control and ±100 the full control effect; potency means the concentration at half of the fitted maximal effect.

| SMILES | Potency | activity change, negative = cytotoxicity |
| --- | --- | --- |
| Fc1cccc(Cc2c(-c3ccco3)nc3c4ccccc4ccn23)c1 | inconclusive: 29.1 µM [cytotoxic, single point] |  |
| COc1cccc(N2CC(O)=C(c3nc4ccccc4s3)C2=N)c1 | active: 3.26 µM |  |
| c1ccc(N2CCN(c3nnc(Cc4cccnc4)c4ccccc34)CC2)nc1 | inconclusive: 16.4 µM [cytotoxic, partial curve] |  |
| C=C1SC(Nc2c(C)cc(C)cc2C)=NC12CCCCC2 |  | inactive: -9.32% |
| O=C(NCCc1nc2ccccc2[nH]1)c1cc([N+](=O)[O-])cc([N+](=O)[O-])c1 | inconclusive: 29.1 µM [cytotoxic, single point] |  |
| Nc1cc(N2CCCCC2)c(Cl)cc1[N+](=O)[O-] | inconclusive: 29.1 µM [cytotoxic, single point] |  |
| COc1ccccc1N1CCN(C(=O)c2cc3c(=O)n(C)c4ccccc4c3n2C)CC1 |  | inactive: -17.8% |
| NS(=O)(=O)c1ccc(-c2ccc(C=O)o2)cc1 |  | inactive: 3.77% |
| COc1ccc2nc(-c3ccccc3)nc(SCC(=O)NCC3CCCO3)c2c1 (centres undefined) | inconclusive: 2.31 µM [cytotoxic, full curve] |  |
| CCOc1ccc(S(=O)(=O)c2cn(C)c3cc(OC)c(OC)cc3c2=O)cc1 | inconclusive: 29.1 µM [rising, single point] |  |
| O=C(CSc1nc(-c2ccc(F)cc2)[nH]c1-c1ccc(F)cc1)Nc1ccc2c(c1)OCCO2 | active: 18.4 µM |  |
| Cc1ccc(C(=O)NCCSc2c(C)[nH]c3ccccc23)cc1[N+](=O)[O-] | inconclusive: 9.2 µM [cytotoxic, single point] |  |
| Cc1ccc(C(=O)OCC(=O)c2c[nH]c3ccccc23)cc1S(=O)(=O)N1CCCCC1 | inconclusive: 14.6 µM [cytotoxic, partial curve, poor fit] |  |
| O=C(c1ccccc1)c1nn(-c2ccc(Cl)cc2)c(=O)cc1C(F)(F)F | active: 18.4 µM |  |
| CCc1noc(C)c1C(=O)N1CCSC1=Nc1cccc(Cl)c1C | inconclusive: 10.3 µM [cytotoxic, partial curve] |  |
| COc1ccccc1NC(=O)CCS(=O)(=O)c1cc2c(cc1Cl)NC(=O)CO2 | inconclusive: 16.4 µM [rising, partial curve] |  |
| CCN(C(=O)CCS(=O)(=O)c1cccc2nonc12)c1ccc(C)c(C)c1 | inconclusive: 0.184 µM [cytotoxic, partial curve, poor fit] |  |

| SMILES | Potency | activity change, negative = cytotoxicity |
| --- | --- | --- |
| COc1ccc(-c2nc(N)n(C(=O)c3ccc(C)cc3)n2)cc1 |  | inactive: -5.18% |
| CCC(C)(C)n1nnnc1CN(Cc1cc2cc(OC)c(OC)cc2[nH]c1=O)C1CCCC1 |  | inactive: -9.25% |
| N#Cc1ccccc1Sc1ccccc1N |  | inactive: 14.8% |
| CCOC(=O)c1cc2c(C)nn(-c3ccccc3)c2s1 |  | inactive: -21.2% |
| Cc1ccc(C)c(N2CCN(C(=O)c3cnn(-c4ccccc4Cl)c3C3CCN(C(=O)OC(C)(C)C)CC3)CC2)c1 | inconclusive: 29.1 µM [cytotoxic, single point] |  |
| CCN1CCN(c2ccc([N+](=O)[O-])cc2C(=O)c2ccc(Cl)cc2)CC1 | active: 23.1 µM |  |
| O=C(NNC(=S)Nc1ccc(Cl)cc1)c1ccccc1OC(F)F | active: 3.26 µM |  |
| O=C(CCc1nc2ccccc2c(=O)[nH]1)N1CCN(S(=O)(=O)c2ccccc2Br)CC1 |  | inactive: -22.5% |
| CC(=O)N1CCN(Cc2cc(=O)oc3ccc4ccccc4c23)CC1 | inconclusive: 29.1 µM [cytotoxic, single point] |  |
| CC(=O)NC(c1cccc(F)c1)c1nc(-c2ccoc2)cs1 (centres undefined) | inconclusive: 20.6 µM [rising, single point] |  |
| O=C(COC(=O)c1cccc(S(=O)(=O)N2CCN(c3ccccc3)CC2)c1)NCc1ccco1 | inconclusive: 29.1 µM [rising, partial curve, poor fit] |  |
| CCN(CC)c1nc(N)c2c(N)nc3c(c2c1C#N)CC(c1ccccc1)O3 (centres undefined) | active: 20.6 µM |  |
| CCN(CC(=O)NCc1ccc(Cl)cc1)C(=O)COc1cccc(C(F)(F)F)c1 | inconclusive: 16.4 µM [cytotoxic, single point] |  |
| O=C(Nc1nnc([C@@H]2C[C@H](O)[C@@H](CO)O2)s1)c1ccccc1Cl |  | inactive: 2.88% |
| CCn1c(CNC(=O)c2cccs2)nnc1SCC(=O)NCCc1ccccc1 |  | inactive: 5.69% |
| C[C@@H](NC(=O)c1ncn(Cc2ccccc2)c1C(=O)N[C@H](C)c1ccccc1)c1ccccc1 | inconclusive: 25.9 µM [cytotoxic, single point] |  |
| O=C(CSc1nnc(-c2ccco2)n1Cc1ccco1)NCc1ccccc1 |  | inactive: -2.04% |

Single values from the entries so far.
`CCN(CC(=O)NCc1ccc(Cl)cc1)C(=O)COc1cccc(C(F)(F)F)c1` | Potency: inconclusive: 16.4 µM [cytotoxic, single point]
`CCN1CCN(c2ccc([N+](=O)[O-])cc2C(=O)c2ccc(Cl)cc2)CC1` | Potency: active: 23.1 µM
`O=C(CCc1nc2ccccc2c(=O)[nH]1)N1CCN(S(=O)(=O)c2ccccc2Br)CC1` | activity change, negative = cytotoxicity: inactive: -22.5%
